The values below come from PMC5382265 (Nature Communications, 2017).

HELM strings list residues between dots; [ac] is acetyl, [am] amide, other brackets name non-standard units.

A short description of this data set: peptide synthesis. Particulars: whole synthesis, UV 215 nm.
“PEPTIDE1{[CH2CO].[dY].P.E.W.P.N.C.S.T.C.G.[am]}$PEPTIDE1,PEPTIDE1,1:R3-8:R3$$$V2.0”: the “final HPLC purity” value is on record as above 90%.
Take “PEPTIDE1{[CH2CO].[dY].L.D.W.P.N.C.S.T.C.G.[am]}$PEPTIDE1,PEPTIDE1,1:R3-8:R3$$$V2.0”: the “final HPLC purity” value is recorded as above 90%.
On to “^Ac-DYDYPGDYSYLY-NH2 (N-acetyl; C-terminal amide)”, for which the “final HPLC purity” value was above 95%.
Consider ^Ac-DYDYPGDYCYLYGTC-NH2, for which the “final HPLC purity” value was above 90%.
As for ^Ac-DYDYPGDYCYLY-NH2, the “final HPLC purity” value is above 95%.
Regarding “PEPTIDE1{[CH2CO].[dY].D.Y.P.G.D.H.C.Y.L.Y.G.T.C.G.[am]}$PEPTIDE1,PEPTIDE1,1:R3-9:R3$$$V2.0”, the “final HPLC purity” value is above 90%.
As for “PEPTIDE1{[CH2CO].[dY].D.Y.P.G.D.Y.C.Y.L.[am]}$PEPTIDE1,PEPTIDE1,1:R3-9:R3$$$V2.0”, the figure is above 90%; as for “PEPTIDE1{[CH2CO].[dY].D.Y.P.G.D.Y.C.Y.L.Y.G.T.[am]}$PEPTIDE1,PEPTIDE1,1:R3-9:R3$$$V2.0”, above 95%; as for “PEPTIDE1{[CH2CO].Y.I.T.L.A.N.P.F.R.I.L.H.C.G.[am]}$PEPTIDE1,PEPTIDE1,1:R3-14:R3$$$V2.0”, above 85%.
For ^Ac-DYDYPGDYCYLYGTSG-NH2, the “final HPLC purity” value is above 95%.
As for “PEPTIDE1{[CH2CO].[dY].S.W.P.N.A.P.E.I.W.K.C.C.G.[am]}$PEPTIDE1,PEPTIDE1,1:R3-13:R3$$$V2.0”, the figure is above 95%; as for “PEPTIDE1{[CH2CO].Y.T.T.L.A.N.P.F.R.I.L.H.C.G.[am]}$PEPTIDE1,PEPTIDE1,1:R3-14:R3$$$V2.0”, above 90%; as for ^Ac-DYQNRSIWLYGCCG-NH2, above 90%.
Turning to “PEPTIDE1{[CH2CO].[dY].L.E.W.P.N.C.N.T.C.G.[am]}$PEPTIDE1,PEPTIDE1,1:R3-8:R3$$$V2.0”, the “final HPLC purity” value was above 90%.
In the case of “PEPTIDE1{[CH2CO].[dY].D.Y.P.G.D.Y.C.Y.[am]}$PEPTIDE1,PEPTIDE1,1:R3-9:R3$$$V2.0”, the “final HPLC purity” value is above 90%.
Turning to “PEPTIDE1{[CH2CO].[dY].D.Y.P.G.D.Y.C.Y.L.Y.G.[am]}$PEPTIDE1,PEPTIDE1,1:R3-9:R3$$$V2.0”, the “final HPLC purity” value is given as above 95%.
As for “^Ac-DYDYPGDYC-NH2 (N-acetyl; C-terminal amide)”, the figure is above 90%; as for “^Ac-DYDLRTPWLKRHACG-NH2 (N-acetyl; C-terminal amide)”, above 90%.
As for “^Ac-DYLYGTCG-NH2 (N-acetyl; C-terminal amide)”, the figure is above 95%; as for ^Ac-DYDYPGDYCYLYGTCG-NH2, above 90%.
For the substance “PEPTIDE1{[ac].[dY].D.Y.P.G.D.Y.S.Y.L.Y.G.T.C.G.[am]}$$$$V2.0”, the “final HPLC purity” value is above 95%.
In the case of “PEPTIDE1{[CH2CO].[dY].A.V.W.P.N.C.R.T.C.G.[am]}$PEPTIDE1,PEPTIDE1,1:R3-8:R3$$$V2.0”, the “final HPLC purity” value is reported as above 95%.
